{"source": "PubChem BioAssay AID1224827 (NIAID, 2016)", "purpose": "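Identify regulators of the macrophage TNF-alpha response to bacterial LPS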 (follow-up of hits)", "system": "RAW264.7 G9 mouse macrophage reporter clone", "reagent": "single siRNA against mouse genes, 100 nM siRNA", "timing": "siRNA for 2 days, then LPS about 16 h", "challenge": "bacterial lipopolysaccharide (LPS), 10 ng/ml, cells fixed after overnight (about 16 h) stimulation", "measurement": "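TNF promoter reporter red fluorescence in nuclei, background subtracted, normalised per plate and to non-targeting control siRNA, as z-scores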", "direction": "TNF reporter z-score, mean: higher = stronger Tnf promoter reporter signal", "hit rule": "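Active siRNA: replicate-mean z-score of 2 or more, or -2 or less; no calls for control wells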", "note": "The deposit covers about 3,800 reagents; below is a part drawn at random. About 2,200 of all reagents (57%) were called active. 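Active means a strong reporter change in either direction; calls are per siRNA, not per gene; qiagen siRNAs gave weaker effects.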 Reagents against one gene are numbered here. Further read-outs or replicates are left out here."}
{"target": "Tpp1", "reagent no.": 1, "TNF reporter z-score, mean": -0.67, "Outcome": "inactive"}
{"target": "Tpp1", "reagent no.": 2, "TNF reporter z-score, mean": -1.57, "Outcome": "inactive"}
{"target": "Tpp1", "reagent no.": 3, "TNF reporter z-score, mean": -4.85, "Outcome": "active"}
{"target": "Zfp747", "reagent no.": 1, "TNF reporter z-score, mean": -1.17, "Outcome": "inactive"}
{"target": "Zfp747", "reagent no.": 2, "TNF reporter z-score, mean": -4.62, "Outcome": "active"}
{"target": "Zfp747", "reagent no.": 3, "TNF reporter z-score, mean": -4.82, "Outcome": "active"}
{"target": "Zfp747", "reagent no.": 4, "TNF reporter z-score, mean": 0.526, "Outcome": "inactive"}
{"target": "Zfp747", "reagent no.": 5, "TNF reporter z-score, mean": -0.572, "Outcome": "inactive"}
{"target": "Zfp747", "reagent no.": 6, "TNF reporter z-score, mean": -1.06, "Outcome": "inactive"}
{"target": "Fstl4", "reagent no.": 1, "TNF reporter z-score, mean": -3.51, "Outcome": "active"}
{"target": "Fstl4", "reagent no.": 2, "TNF reporter z-score, mean": -3.74, "Outcome": "active"}
{"target": "Fstl4", "reagent no.": 3, "TNF reporter z-score, mean": -4.44, "Outcome": "active"}
{"target": "Fstl4", "reagent no.": 4, "TNF reporter z-score, mean": 5.37, "Outcome": "active"}
{"target": "Fstl4", "reagent no.": 5, "TNF reporter z-score, mean": 2.82, "Outcome": "active"}
{"target": "Fstl4", "reagent no.": 6, "TNF reporter z-score, mean": 1.03, "Outcome": "inactive"}

Records above whose gene name starts with T or t (3):
{"target": "Tpp1", "reagent no.": 1, "TNF reporter z-score, mean": -0.67, "Outcome": "inactive"}
{"target": "Tpp1", "reagent no.": 2, "TNF reporter z-score, mean": -1.57, "Outcome": "inactive"}
{"target": "Tpp1", "reagent no.": 3, "TNF reporter z-score, mean": -4.85, "Outcome": "active"}
